Reference: the supplement of paper PMC6411743
± gives the standard deviation of the averaged measurements. Only a part is listed here, and it is no random draw.

Chains of the proteins cited; added tags and fusions are not shown. Lines headed by an entry give the natural chain unless they say otherwise; changes in a name come on top.
UniProt Q9UM00: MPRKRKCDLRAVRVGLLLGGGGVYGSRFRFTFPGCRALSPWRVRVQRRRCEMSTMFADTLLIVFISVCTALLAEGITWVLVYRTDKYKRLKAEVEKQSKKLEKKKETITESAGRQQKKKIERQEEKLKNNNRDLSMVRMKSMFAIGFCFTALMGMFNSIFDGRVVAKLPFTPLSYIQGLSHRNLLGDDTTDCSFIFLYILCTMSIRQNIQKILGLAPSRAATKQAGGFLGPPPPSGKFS
UniProt O75427: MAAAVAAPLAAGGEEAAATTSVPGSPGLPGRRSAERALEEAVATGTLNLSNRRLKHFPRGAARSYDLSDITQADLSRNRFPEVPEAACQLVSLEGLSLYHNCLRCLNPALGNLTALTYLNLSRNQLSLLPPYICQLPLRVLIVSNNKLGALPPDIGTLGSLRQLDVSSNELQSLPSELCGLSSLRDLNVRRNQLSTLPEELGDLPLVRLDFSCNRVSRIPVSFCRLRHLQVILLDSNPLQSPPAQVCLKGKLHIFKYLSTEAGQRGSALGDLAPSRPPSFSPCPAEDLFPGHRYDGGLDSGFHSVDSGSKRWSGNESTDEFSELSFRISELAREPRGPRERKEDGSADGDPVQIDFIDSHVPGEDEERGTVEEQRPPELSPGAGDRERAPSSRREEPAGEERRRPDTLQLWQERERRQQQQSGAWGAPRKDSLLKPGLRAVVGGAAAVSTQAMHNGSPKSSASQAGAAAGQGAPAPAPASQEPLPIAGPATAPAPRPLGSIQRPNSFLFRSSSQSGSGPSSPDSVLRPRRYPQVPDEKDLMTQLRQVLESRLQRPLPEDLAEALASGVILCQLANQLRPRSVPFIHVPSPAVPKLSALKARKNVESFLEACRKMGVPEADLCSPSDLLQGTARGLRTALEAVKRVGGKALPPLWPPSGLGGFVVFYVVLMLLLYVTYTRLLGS
UniProt Q9H9C1: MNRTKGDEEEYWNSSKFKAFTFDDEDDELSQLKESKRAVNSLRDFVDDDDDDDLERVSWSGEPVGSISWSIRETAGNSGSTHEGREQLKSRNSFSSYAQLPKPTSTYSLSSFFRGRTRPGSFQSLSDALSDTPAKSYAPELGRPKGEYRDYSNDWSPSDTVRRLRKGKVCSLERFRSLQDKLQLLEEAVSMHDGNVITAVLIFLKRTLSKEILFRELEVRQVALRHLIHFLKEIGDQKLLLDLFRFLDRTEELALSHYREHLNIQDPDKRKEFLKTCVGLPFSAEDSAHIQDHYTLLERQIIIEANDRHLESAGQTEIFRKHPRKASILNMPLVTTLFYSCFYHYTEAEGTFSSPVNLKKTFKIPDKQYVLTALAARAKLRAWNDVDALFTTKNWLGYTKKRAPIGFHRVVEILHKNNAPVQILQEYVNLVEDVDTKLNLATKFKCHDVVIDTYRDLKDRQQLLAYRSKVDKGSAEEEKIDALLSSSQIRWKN
UniProt Q8WXB1: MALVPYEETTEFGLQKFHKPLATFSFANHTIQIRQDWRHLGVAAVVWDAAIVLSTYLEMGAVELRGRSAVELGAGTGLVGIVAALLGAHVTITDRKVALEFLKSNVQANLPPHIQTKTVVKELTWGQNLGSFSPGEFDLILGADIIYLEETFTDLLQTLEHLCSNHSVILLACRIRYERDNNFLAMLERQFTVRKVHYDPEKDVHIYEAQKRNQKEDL
UniProt Q13686: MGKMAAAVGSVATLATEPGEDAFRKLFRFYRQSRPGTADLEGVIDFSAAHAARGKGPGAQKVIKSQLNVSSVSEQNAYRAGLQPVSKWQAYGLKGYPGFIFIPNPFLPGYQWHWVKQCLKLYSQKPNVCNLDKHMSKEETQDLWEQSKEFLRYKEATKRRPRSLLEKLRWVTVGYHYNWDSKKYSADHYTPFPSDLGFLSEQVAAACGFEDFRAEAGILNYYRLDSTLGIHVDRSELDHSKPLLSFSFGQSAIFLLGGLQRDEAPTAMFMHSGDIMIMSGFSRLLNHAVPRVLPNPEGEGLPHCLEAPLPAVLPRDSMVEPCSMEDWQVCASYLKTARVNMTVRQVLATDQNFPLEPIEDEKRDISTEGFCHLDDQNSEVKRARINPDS
UniProt O75880: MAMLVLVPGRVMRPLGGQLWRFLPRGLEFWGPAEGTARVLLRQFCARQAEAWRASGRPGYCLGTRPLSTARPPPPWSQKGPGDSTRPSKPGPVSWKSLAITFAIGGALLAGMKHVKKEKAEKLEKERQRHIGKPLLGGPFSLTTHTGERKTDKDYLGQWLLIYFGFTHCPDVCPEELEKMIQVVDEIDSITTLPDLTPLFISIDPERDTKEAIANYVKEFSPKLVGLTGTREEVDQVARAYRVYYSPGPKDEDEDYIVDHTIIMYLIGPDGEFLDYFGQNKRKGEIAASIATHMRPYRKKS
UniProt Q9Y2M0: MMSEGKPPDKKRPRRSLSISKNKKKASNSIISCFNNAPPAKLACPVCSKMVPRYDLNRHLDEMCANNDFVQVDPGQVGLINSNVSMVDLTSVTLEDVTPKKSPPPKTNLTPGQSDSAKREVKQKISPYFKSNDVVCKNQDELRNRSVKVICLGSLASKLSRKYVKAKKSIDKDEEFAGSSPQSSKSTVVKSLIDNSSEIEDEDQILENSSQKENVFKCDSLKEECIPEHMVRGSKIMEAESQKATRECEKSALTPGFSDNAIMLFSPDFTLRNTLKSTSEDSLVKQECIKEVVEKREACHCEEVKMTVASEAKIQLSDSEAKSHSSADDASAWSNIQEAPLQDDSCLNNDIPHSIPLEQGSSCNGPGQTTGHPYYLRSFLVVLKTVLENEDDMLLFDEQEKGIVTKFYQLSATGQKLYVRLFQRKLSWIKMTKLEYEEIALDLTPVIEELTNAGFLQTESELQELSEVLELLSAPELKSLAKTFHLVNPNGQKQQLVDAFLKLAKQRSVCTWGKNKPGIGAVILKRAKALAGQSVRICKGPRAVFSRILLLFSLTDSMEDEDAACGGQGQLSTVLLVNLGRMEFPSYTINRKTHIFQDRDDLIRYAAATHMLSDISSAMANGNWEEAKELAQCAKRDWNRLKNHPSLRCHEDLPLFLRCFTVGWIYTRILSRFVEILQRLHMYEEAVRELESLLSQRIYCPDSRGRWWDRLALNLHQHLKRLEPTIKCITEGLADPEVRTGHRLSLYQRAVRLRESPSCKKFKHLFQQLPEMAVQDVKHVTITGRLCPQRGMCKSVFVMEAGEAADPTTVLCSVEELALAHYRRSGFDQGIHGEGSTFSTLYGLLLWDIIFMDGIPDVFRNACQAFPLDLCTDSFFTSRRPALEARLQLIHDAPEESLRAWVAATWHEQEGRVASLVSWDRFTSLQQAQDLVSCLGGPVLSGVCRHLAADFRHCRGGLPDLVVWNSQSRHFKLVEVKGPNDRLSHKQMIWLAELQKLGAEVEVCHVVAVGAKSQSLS
UniProt Q8N1F7: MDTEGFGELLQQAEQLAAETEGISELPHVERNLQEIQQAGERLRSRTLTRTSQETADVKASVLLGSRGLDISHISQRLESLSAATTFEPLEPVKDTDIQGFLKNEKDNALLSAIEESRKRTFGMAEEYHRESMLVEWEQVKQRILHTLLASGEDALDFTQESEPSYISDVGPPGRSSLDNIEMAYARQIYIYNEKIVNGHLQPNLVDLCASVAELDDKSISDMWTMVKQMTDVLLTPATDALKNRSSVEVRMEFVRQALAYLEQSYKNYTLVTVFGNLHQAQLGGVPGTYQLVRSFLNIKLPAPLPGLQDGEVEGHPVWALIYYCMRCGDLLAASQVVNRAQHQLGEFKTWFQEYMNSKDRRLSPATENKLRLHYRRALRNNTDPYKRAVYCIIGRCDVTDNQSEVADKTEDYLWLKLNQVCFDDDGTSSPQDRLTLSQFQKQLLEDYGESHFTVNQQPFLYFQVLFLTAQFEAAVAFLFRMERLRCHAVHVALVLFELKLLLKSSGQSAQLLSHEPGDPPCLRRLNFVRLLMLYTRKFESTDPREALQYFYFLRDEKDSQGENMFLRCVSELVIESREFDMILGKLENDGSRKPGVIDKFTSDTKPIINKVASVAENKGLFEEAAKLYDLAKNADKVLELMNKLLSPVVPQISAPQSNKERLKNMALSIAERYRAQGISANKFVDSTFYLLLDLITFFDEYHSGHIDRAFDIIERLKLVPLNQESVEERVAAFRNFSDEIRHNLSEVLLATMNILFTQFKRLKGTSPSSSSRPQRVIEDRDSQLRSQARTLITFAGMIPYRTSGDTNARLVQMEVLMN
UniProt P35637: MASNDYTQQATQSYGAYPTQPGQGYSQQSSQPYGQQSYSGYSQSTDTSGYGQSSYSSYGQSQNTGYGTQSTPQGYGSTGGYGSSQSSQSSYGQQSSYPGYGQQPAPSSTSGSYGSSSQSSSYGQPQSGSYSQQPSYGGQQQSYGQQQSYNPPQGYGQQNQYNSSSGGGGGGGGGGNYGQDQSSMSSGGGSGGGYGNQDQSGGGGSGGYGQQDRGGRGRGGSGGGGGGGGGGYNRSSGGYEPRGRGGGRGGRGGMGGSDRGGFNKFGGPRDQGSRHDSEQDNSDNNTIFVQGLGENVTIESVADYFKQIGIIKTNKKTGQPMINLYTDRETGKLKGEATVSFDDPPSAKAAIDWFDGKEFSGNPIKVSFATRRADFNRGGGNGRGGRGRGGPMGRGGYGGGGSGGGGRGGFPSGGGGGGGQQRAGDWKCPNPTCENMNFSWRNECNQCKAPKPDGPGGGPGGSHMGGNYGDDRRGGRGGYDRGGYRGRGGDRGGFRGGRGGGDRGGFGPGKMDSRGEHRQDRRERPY
UniProt Q9UJV9: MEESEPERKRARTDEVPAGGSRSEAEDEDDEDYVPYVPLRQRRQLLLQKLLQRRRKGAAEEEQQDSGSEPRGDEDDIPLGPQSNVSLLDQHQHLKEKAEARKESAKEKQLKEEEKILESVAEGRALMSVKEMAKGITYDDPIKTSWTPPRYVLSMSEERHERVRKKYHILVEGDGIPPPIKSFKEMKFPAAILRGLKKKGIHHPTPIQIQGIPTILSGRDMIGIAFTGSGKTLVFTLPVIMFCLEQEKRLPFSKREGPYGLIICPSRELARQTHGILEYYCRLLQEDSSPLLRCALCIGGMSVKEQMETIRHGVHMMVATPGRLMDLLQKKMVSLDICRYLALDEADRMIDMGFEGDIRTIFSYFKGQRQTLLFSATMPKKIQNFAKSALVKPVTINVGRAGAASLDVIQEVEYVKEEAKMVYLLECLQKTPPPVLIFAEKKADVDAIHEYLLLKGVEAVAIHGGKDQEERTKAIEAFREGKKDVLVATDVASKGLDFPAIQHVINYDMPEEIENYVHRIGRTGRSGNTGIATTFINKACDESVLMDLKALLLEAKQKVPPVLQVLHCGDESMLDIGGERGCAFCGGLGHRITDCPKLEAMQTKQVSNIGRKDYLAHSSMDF
UniProt Q96K21: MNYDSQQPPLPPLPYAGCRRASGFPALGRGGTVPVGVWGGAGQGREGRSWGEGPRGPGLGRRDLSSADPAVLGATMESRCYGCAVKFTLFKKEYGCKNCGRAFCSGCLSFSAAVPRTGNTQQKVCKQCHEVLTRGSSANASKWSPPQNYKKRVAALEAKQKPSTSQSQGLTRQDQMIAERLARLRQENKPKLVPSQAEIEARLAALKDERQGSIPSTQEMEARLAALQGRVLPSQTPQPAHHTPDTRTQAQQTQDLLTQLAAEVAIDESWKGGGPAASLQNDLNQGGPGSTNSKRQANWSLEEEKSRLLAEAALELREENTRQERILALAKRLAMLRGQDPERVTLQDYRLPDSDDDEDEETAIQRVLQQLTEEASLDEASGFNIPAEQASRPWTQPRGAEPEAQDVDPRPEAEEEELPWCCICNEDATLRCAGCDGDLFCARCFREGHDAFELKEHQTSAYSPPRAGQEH
UniProt Q8NCP5: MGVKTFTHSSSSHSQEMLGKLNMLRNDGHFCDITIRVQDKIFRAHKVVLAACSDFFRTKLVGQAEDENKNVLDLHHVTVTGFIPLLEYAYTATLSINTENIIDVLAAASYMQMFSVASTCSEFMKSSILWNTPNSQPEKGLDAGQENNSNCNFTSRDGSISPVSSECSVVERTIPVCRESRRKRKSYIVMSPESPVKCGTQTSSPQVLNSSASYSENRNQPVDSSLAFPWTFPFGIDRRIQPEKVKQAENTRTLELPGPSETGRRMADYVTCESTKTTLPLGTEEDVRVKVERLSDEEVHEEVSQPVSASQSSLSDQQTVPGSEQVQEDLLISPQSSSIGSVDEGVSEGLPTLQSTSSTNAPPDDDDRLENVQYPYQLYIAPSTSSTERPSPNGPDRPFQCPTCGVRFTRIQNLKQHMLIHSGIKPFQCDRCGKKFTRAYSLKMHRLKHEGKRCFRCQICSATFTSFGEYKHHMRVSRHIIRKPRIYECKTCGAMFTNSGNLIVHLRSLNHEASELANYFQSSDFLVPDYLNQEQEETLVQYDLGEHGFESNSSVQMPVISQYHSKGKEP

Compound: Nc1ncnc2c1ncn2[C@@H]1O[C@H](COP(=O)(O)OP(=O)(O)NP(=O)(O)O)[C@@H](O)[C@H]1O [adenylyl imidodiphosphate]
Experiment: NP40-soluble protein abundance relative to vehicle (solubility fold change) (ratio); higher = more soluble protein in presence of AMP-PNP
Summary of the method: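 Data come from three independent experiments in which Dounce-homogenised Jurkat crude lysate was treated at eight concentrations from 0.1 to 10 mM. Treatment ran 10 min at room temperature and then 3 min at 37 °C, after which 0.8% NP40 and benzonase were added for 60 min at 4 °C before ultracentrifugation. The supernatant underwent TMT labelling and LC-MS/MS, and vsn-normalised intensities were expressed as fold change against the detergent-processed vehicle in each replicate.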

| Target | NP40-soluble protein abundance (concentration: 1mM) | NP40-soluble protein abundance (concentration: 2mM) | NP40-soluble protein abundance (concentration: 4mM) | NP40-soluble protein abundance (concentration: 6mM) | NP40-soluble protein abundance (concentration: 8mM) | NP40-soluble protein abundance (concentration: 10mM) |
| --- | --- | --- | --- | --- | --- | --- |
| J9JIE6 and related entries (UniProt Q9UM00) | 1 ± 0.034 | 1.03 ± 0.029 | 1.03 ± 0.031 | 1.05 ± 0.039 | 1.06 ± 0.028 | 1.09 ± 0.051 |
| H7C5D9 and related entries (UniProt O75427) | 1.05 ± 0.037 | 1.05 ± 0.05 | 1.02 ± 0.041 | 1.04 ± 0.07 | 1.04 ± 0.051 | 1.06 ± 0.051 |
| J3KNP4 and related entries (UniProt Q9NPR2) | 1.02 ± 0.015 | 1.03 ± 0.036 | 1.01 ± 0.033 | 1.02 ± 0.026 | 1 ± 0.039 | 1 ± 0.042 |
| G3V4K3 and related entries (UniProt Q9H9C1) | 0.987 ± 0.019 | 0.929 ± 0.054 | 0.961 ± 0.013 | 0.9324 ± 0.0074 | 0.939 ± 0.015 | 0.925 ± 0.019 |
| H7BXH9 and related entries (UniProt Q8WXB1) | 0.992 ± 0.038 | 0.952 ± 0.044 | 1.01 ± 0.021 | 0.9757 ± 0.0078 | 1.002 ± 0.0044 | 0.9848 ± 0.0041 |
| H0YJF3 and related entries (UniProt Q13686) | 0.9813 ± 0.0041 | 0.9829 ± 0.0011 | 0.9693 ± 0.0041 | 0.992 ± 0.016 | 0.992 ± 0.027 | 0.967 ± 0.018 |
| H0YJI2 and related entries (UniProt Q15643) | 1.008 ± 0.0049 | 1.05 ± 0.073 | 1.02 ± 0.018 | 0.953 ± 0.015 | 0.928 ± 0.025 | 0.949 ± 0.043 |
| J3QL56 and related entries (UniProt O75880) | 1 ± 0.029 | 0.998 ± 0.014 | 0.971 ± 0.015 | 1.017 ± 0.0091 | 0.96 ± 0.032 | 0.978 ± 0.042 |
| H3BQ24 and related entries (UniProt Q9Y2M0) | 0.926 ± 0.03 | 0.806 ± 0.097 | 0.8414 ± 0.0051 | 0.877 ± 0.06 | 0.858 ± 0.076 | 0.82 ± 0.052 |
| H3BVG0 and related entries (UniProt Q8N1F7) | 0.963 ± 0.037 | 0.9258 ± 0.0092 | 0.952 ± 0.03 | 0.994 ± 0.037 | 1.01 ± 0.015 | 1.03 ± 0.026 |
| H3BPE7 and related entries (UniProt P35637) | 1.07 ± 0.03 | 1.19 ± 0.057 | 1.15 ± 0.056 | 1.22 ± 0.05 | 1.23 ± 0.087 | 1.296 ± 0.0023 |
| G5E9V5 and related entries (UniProt P82650) | 1 ± 0.076 | 0.946 ± 0.095 | 0.947 ± 0.12 | 0.924 ± 0.14 | 0.92 ± 0.13 | 0.913 ± 0.18 |
| J3KNN5 and related entries (UniProt Q9UJV9) | 1.11 ± 0.029 | 1.1 ± 0.043 | 1.13 ± 0.073 | 1.12 ± 0.035 | 1.15 ± 0.053 | 1.22 ± 0.065 |
| H3BRF9 and related entries (UniProt Q96K21) | 0.998 ± 0.015 | 1.03 ± 0.05 | 1.02 ± 0.049 | 0.979 ± 0.02 | 0.959 ± 0.028 | 0.997 ± 0.044 |
| H0YEM9 and related entries (UniProt Q8NCP5) | 1.03 ± 0.023 | 1.03 ± 0.013 | 1.003 ± 0.0095 | 1.03 ± 0.025 | 1.06 ± 0.021 | 1.02 ± 0.011 |

Reprinted at random: 2 records from the list, in no set order.

| Target | NP40-soluble protein abundance (concentration: 1mM) | NP40-soluble protein abundance (concentration: 2mM) | NP40-soluble protein abundance (concentration: 4mM) | NP40-soluble protein abundance (concentration: 6mM) | NP40-soluble protein abundance (concentration: 8mM) | NP40-soluble protein abundance (concentration: 10mM) |
| --- | --- | --- | --- | --- | --- | --- |
| G3V4K3 and related entries (UniProt Q9H9C1) | 0.987 ± 0.019 | 0.929 ± 0.054 | 0.961 ± 0.013 | 0.9324 ± 0.0074 | 0.939 ± 0.015 | 0.925 ± 0.019 |
| H3BVG0 and related entries (UniProt Q8N1F7) | 0.963 ± 0.037 | 0.9258 ± 0.0092 | 0.952 ± 0.03 | 0.994 ± 0.037 | 1.01 ± 0.015 | 1.03 ± 0.026 |
